Data taken from PubChem BioAssay AID2685 (National Center for Advancing Translational Sciences (NCATS), 2010).
Hit rate of the full screen: of about 320,000 compounds, about 2,100 (0.66%) were called active. The shares of active, inactive and inconclusive entries below differ from those in the screen. Calls follow the shape of the dose curve; as a rule, active = well fitted inhibition curve with a large enough effect in the signal ratio, with a control signal flat (not every such curve was filed as active); inconclusive = small, poorly fitted or top-dose-only effect, or effect the other way, or a change in a side signal; inactive = flat fitted curve, though single readings scatter; the % refers to the signal ratio. Potencies of inconclusive entries are doubtful fits and often do not repeat.

experiment: qHTS Assay for Lipid Storage Modulators in Drosophila S3 Cells; settings: BODIPY lipid droplet fluorescence, 18-24 h, cells fed with added oleic acid; lipid storage change, negative = inhibition: at 46.1 µM (top of the series) unless noted
Procedure, shortened: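 Drosophila S3 cells loaded with oleic acid (400 uM, as added) and compounds at several concentrations; lipid droplets imaged by 488-nm laser-scanning cytometry, 500–530 nm intensity and object ratio to cell channel. Percent activity normalized to 20 uM Triacsin C.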
% is scaled to controls: 0 for no effect and ±100 for the full control effect; potency is read from the fitted curve at half-maximal effect.

Structure (SMILES)	lipid storage change, negative = inhibition	Potency
CCNC(=S)NCc1ccc2[nH]c(C)cc2c1	inactive	
Cc1cc(C(=O)Nc2ncn[nH]2)ccc1[N+](=O)[O-]	inconclusive: -34.9%	
O=C(COc1ccc(Br)cc1)NC(=S)Nc1ccccc1N1CCOCC1		inconclusive: 29.1 µM [activator, single point]
C=Cn1c(C(=O)O)ccc1-c1ccc(OC)cc1	inconclusive: -14.4%	
COc1cccc(/C=C/C(=O)c2ccc(C)c([N+](=O)[O-])c2)c1	inconclusive: -11.6%	
O=C(Nc1ccccn1)c1cc2ccccc2cc1O	inconclusive: -42.9%	
OC(CN1CC=C(/C=C/c2ccc(Br)cc2)CC1)c1ccccc1 (stereo unspecified)		inconclusive: 29.1 µM [falling, single point]
COC(=O)c1ccc(NC(=O)CNC(=O)C2CCCCC2)c(C)c1		inconclusive: 6.51 µM [rising, partial curve]
O=C(CSc1nnc(-c2cccc(F)c2)o1)NC1CCCC1		inconclusive: 32.6 µM [activator, single point]
COc1ccccc1CN1C(=O)CN(C2CCCCCC2)C(=O)C1c1ccc(F)cc1 (stereo unspecified)	inconclusive: -32.3%	
Cc1ccc(OCCOCCNC(C)C)c(Br)c1	inconclusive: 102%	
COc1cc(C(=O)N/N=C/c2ccsc2C)cc(OC)c1OC		inconclusive: 8.2 µM [falling, partial curve]
CCOc1ccc(S(=O)(=O)N2CCN(CC(O)COc3cccc([N+](=O)[O-])c3)CC2)cc1 (stereo unspecified)	inconclusive: -65.5%	
Cn1nc(-c2ccccc2)cc1NS(=O)(=O)c1ccccc1	inconclusive: -13.7%	
O=C(NNc1cc(C(F)(F)F)nc2ccccc12)Nc1cccc(Cl)c1	inconclusive: 15.4%	
NS(=O)(=O)c1ccc2ccccc2c1	inconclusive: 2.9%	
O=C(CCc1ccccc1)Nc1nc2nc(-c3ccccc3)cc(=O)n2[nH]1	inconclusive: 2.14%	
CCOC(=O)N1CCN(C(=O)c2ccc([N+](=O)[O-])cc2Cl)CC1		inconclusive: 6.51 µM [falling, full curve, poor fit]
CCc1ccc2[nH]c(=O)c(CN(CCN3CCCC3)C(=O)NC3CCCCC3)cc2c1		inconclusive: 0.58 µM [activator, single point]
Cc1ccc(CN2CCNC(=O)C2CC(=O)NCC(F)(F)F)o1 (stereo unspecified)	inconclusive: 23.8%	
CC1CCCC(N2CCN(C(=O)c3ccccc3F)CC2)C1 (stereo unspecified)	inconclusive: -23.8%	

Structure (SMILES)	lipid storage change, negative = inhibition	Potency
Nc1ccc(-c2nc3ccc(N)cc3[nH]2)cc1	inconclusive: 10.2%	
CC(=O)N1N=C(c2ccccc2)CC1c1ccc(F)cc1 (stereo unspecified)	inconclusive: 24.7%	
Cc1[nH]nc2c1C(c1ccc(O)cc1)C1=C(CC(C)(C)CC1=O)N2 (stereo unspecified)	inconclusive: -10.9%	
O=C1CCC(C(=O)Nc2cccc3ccccc23)N1 (stereo unspecified)		inconclusive: 20.6 µM [falling, single point]
Cc1cccc(C(=O)N2CCC(=O)N(C(COCc3cccc(Cl)c3)Cc3ccccc3)CC2)c1 (stereo unspecified)	inconclusive: 32.3%	
Cc1cc(C(=O)N/N=C\c2cc(C(C)(C)C)c(O)c(C(C)(C)C)c2)n[nH]1		inconclusive: 5.8 µM [falling, single point]
O=C(N/C(=C/c1ccccc1)C(=O)N1CCCCCC1)c1ccccc1	inactive	
C=CCc1c(C)nc(-c2ccccc2)nc1N/N=C/c1ccccc1	inconclusive: -25%	
Cc1cc(C)n2nc(SCC(N)=O)nc2n1	inconclusive: -14.7%	
Cn1ccsc1=NC(=O)c1ccc(CS(C)(=O)=O)cc1	inconclusive: 67.2%	
COc1cc(NC(=O)CN2C(=O)NC(C)(c3ccc(OC(F)F)cc3)C2=O)cc(OC)c1OC (stereo unspecified)	inconclusive: -3.95%	
COc1ccc(-c2nc(CS(=O)CC(=O)NCc3ccc4c(c3)OCO4)c(C)o2)cc1 (stereo unspecified)		inconclusive: 2.59 µM [activator, single point]
CCOC(=O)c1sc2nc(CC(=O)OC)nc(N3CCN(c4ccc(OC)cc4)CC3)c2c1C		inconclusive: 0.58 µM [activator, single point]
CCN1C(=O)CSc2ccc(C(=O)NCc3ccco3)cc21	inconclusive: 38.1%	
CCCC(NC(=O)COc1cc2c(c3oc(=O)c(C)c(C)c13)CCC(C)(C)O2)C(=O)O (stereo unspecified)	inconclusive: 18.7%	
Cc1ccc(NC(=O)NC(=O)CSc2nnnn2C)c(C)c1	inconclusive: 20.8%	
NC1=NC[C@H](Cc2ccc(O)cc2)N1CCC12CC3CC(CC(C3)C1)C2	inconclusive: 3.68%	
COc1ccc(NC(=O)CN2C(=O)NC(CC(C)C)C2=O)cc1S(=O)(=O)N1CCOCC1 (stereo unspecified)	inconclusive: 7.18%	
N#Cc1ccc(C(=O)Nc2cccc3ncccc23)c(F)c1	inconclusive: 19.3%	
Cc1cc(C)c2nc(N3CCCC(C(=O)N4CCN(c5ncccn5)CC4)C3)sc2c1 (stereo unspecified)	inconclusive: 0.429%	
Cc1cccc(N2CCN(C(=O)C(NS(=O)(=O)c3cccs3)c3ccccc3)CC2)c1C (stereo unspecified)	inactive	

Structure (SMILES)	lipid storage change, negative = inhibition	Potency
O=C(NCc1cccnc1)C1CC(c2cccc(Br)c2)=NO1 (stereo unspecified)	inconclusive: 40.7%	
O=S(=O)(c1ccc2oc3ccccc3c2c1)N1CCOCC1		inconclusive: 20.6 µM [activator, partial curve]
CC(C)CN(C(=O)COC(=O)c1cccc2ccccc12)c1c(N)n(Cc2ccccc2)c(=O)[nH]c1=O	inconclusive: 11.2%	
Cc1cc(=O)oc2c(C)c3occc3cc12	inconclusive: 1.39%	
Cc1nn(-c2ccccc2)c2c1c(C)c(CCC(=O)N1CCOCC1)c(=O)n2C		inconclusive: 0.82 µM [activator, single point]
O=C(CSc1nnc(NC(=O)c2c(F)cccc2F)s1)NC1CCCC1	inconclusive: -59.8%	
O=[N+]([O-])c1ccc(-c2nc(-c3cccs3)c(-c3cccs3)[nH]2)cc1		active: 23.1 µM
COc1ccc(C/C(N)=N/OC(=O)c2cccc([N+](=O)[O-])c2)cc1	inconclusive: 5.93%	
CCOc1ccc(C(=O)NC2C(=O)N3C(C(=O)O)=C(COC(C)=O)CSC23)cc1OCC (stereo unspecified)	inconclusive: -32.9%	
COc1ccc(OC)c(-c2c(C#N)c(N)nc3c2c(=O)nc2sccn23)c1	inconclusive: 5.41%	
CCN(CC(=O)Nc1c(F)cccc1F)C(=O)Cc1c(C)nc2ccccc2c1C	inconclusive: -0.06%	
O=C(NCc1cccnc1)C1CC2c3ccccc3C1c1ccccc12 (stereo unspecified)	inconclusive: -6.46%	
CCOC(=O)C(=NC(C)CC)NNc1cccc(C(F)(F)F)c1 (stereo unspecified)	inactive	
O=C(CSc1ccc(-c2ccc(F)cc2)nn1)NC1CCCCC1		inconclusive: 0.651 µM [activator, full curve]
Cc1csc(OCC(=O)Nc2ccc(C)c(C)c2)n1	inconclusive: 8.98%	
O=C(CCc1nnc(-c2ccccc2)o1)NC1CCCCC1	inconclusive: 11.6%	
O=S(=O)(c1ccccc1)N1CCN(C/C=C/c2ccccc2)CC1	inconclusive: 29.8%	
COc1cccc(C(=O)NCC(=O)NCc2cc(=O)n(C)c(=O)n2C)c1OC	inconclusive: 3.02%	
COc1ccc(C(=O)Nc2ccccc2C(=O)Nc2ccc(C(=O)O)cc2)cc1	inconclusive: -28.8%	
CN(C(=O)c1cc(-c2ccc3c(c2)OCO3)on1)c1ccccc1	inconclusive: 79.1%	
Cc1nsc2nc3c(F)c(F)c(F)c(F)c3cc12	inconclusive: -55%	

Structure (SMILES)	lipid storage change, negative = inhibition	Potency
COc1cccc(-c2csc(N3CCN(C(=O)NC45CC6CC(CC(C6)C4)C5)CC3)n2)c1	inconclusive: -29.3%	
Cc1ccc(C)c(C(=O)COC(=O)CN2C(=O)C3C4C=CC(C4)C3C2=O)c1 (stereo unspecified)		inconclusive: 29.1 µM [falling, single point]
CC(C)(C)NC(=O)CSc1nc(-c2ccccc2)cc(=O)[nH]1	inconclusive: -49.5%	
CCOC(=O)C1(CCOc2ccccc2)CCN(Cc2cccc(F)c2)CC1		inconclusive: 2.06 µM [falling, partial curve]
Cc1ccccc1NCc1ccc(O)c2ncccc12	inconclusive: -10%	
CCCCCc1ccc(-c2ccc(/C=C/C(=O)O)cc2)nc1	inconclusive: -15.4%	
CC1(C)OC(=O)C(=CNCCc2ccc(O)cc2)C(=O)O1		inconclusive: 29.1 µM [falling, partial curve, poor fit]
O=C(Nc1nccs1)C1CC(=O)N(c2ccc(F)cc2)C1 (stereo unspecified)	inconclusive: -122%	
COC(=O)COc1ccc(S(=O)(=O)N2CCCCCC2)cc1C	inconclusive: -16.7%	
O=C(N/N=C\c1cc2c(cc1Cl)OCO2)c1cccs1	inconclusive: -31.6%	
Cc1nc2ccc(NS(=O)(=O)c3ccc(F)cc3F)cc2s1		active: 13 µM
O=C(CCC(=O)N1CCN(Cc2ccc(F)cc2)CC1)Nc1nnc(C(F)(F)F)s1	inconclusive: 10.4%	
c1csc(-c2noc(CN3CCN4CCCC4C3)n2)c1 (stereo unspecified)		inconclusive: 29.1 µM [activator, single point]
CCn1c(C)nc2cc(C(=O)NNC(=O)c3ccc(Cl)nc3)ccc21	inconclusive: 3.59%	
CC1C(=O)Nc2ccccc2N1C(=O)c1cccc(C(F)(F)F)c1 (stereo unspecified)	inconclusive: -108%	
CCN1C(=O)S/C(=C/c2cn(C)c3ccccc23)C1=O	inconclusive: -38.1%	
Cc1ccc(O)c(NC(=O)CSc2ccc(Cl)cc2)c1	inconclusive: -34.6% [cytotoxic] [at 0.00295 µM]	
CC(C)CCN1CCN(Cc2nc3ccccc3s2)CC1CCO (stereo unspecified)		inconclusive: 14.6 µM [activator, single point]

Entries of single compounds from above:
c1csc(-c2noc(CN3CCN4CCCC4C3)n2)c1 (stereo unspecified) as listed: Potency: inconclusive: 29.1 µM [activator, single point]
O=C(CCC(=O)N1CCN(Cc2ccc(F)cc2)CC1)Nc1nnc(C(F)(F)F)s1 as listed: lipid storage change, negative = inhibition: inconclusive: 10.4%
CC1(C)OC(=O)C(=CNCCc2ccc(O)cc2)C(=O)O1 as listed: Potency: inconclusive: 29.1 µM [falling, partial curve, poor fit]
CC(C)CCN1CCN(Cc2nc3ccccc3s2)CC1CCO (stereo unspecified) as listed: Potency: inconclusive: 14.6 µM [activator, single point]
